Where a name gives a salt, the structure may show the parent alone. In all, about 5,300 compounds went through this assay and about 130 (2.5%) showed an effect of 50% or more. The list shows a part of the results.

The subject of this test is M. mycetomatis strain mm55. The following applies: primary screen, metabolic activity vs growth control; 96 h, 2 µM; inhibitor.
Take `Nc1nc(F)nc2c1ncn2[C@@H]1O[C@H](CO)[C@@H](O)[C@@H]1O` [ONC0000009, fludarabine]: the “% viability” value is 119.4%. As to `CCCc1ccc(C(=O)O)cc1` [ONC0002961], the “% viability” value is reported as 146%. Then `C#C[C@]1(OC(=O)CCCCCC)CC[C@H]2[C@@H]3CCC4=CC(=O)CC[C@@H]4[C@H]3CC[C@@]21C` [ONC0000267, norethisterone enanthate], with 63.38%; and `CN(C)Cc1c(C(=O)NCCOc2ccc(C(=O)NO)cc2)oc2ccccc12` [ONC0004673, abexinostat pci24781], with 85.86%; and `CCN(CC)CCN1C(=O)C(=Cc2ccc(OC)cc2)Nc2ccccc21` [ONC0005609, caroverine], with 42.25%. On to `CC(C)NCC(O)COc1ccc(COCCOC(C)C)cc1` (stereo not drawn) [ONC0004061, bisoprolol fumarate], for which the “% viability” value is reported as 123.8%. Consider `COCCN1CCN(Cc2ccc(-c3n[nH]c4c3C(=O)c3c(NC(=O)NN5CCOCC5)cccc3-4)cc2)CC1` [ONC0000735, rgb286638 free base], for which the “% viability” value came to 66.76%. With `O=C1CN2Cc3c(ccc(Cl)c3Cl)N=C2N1` [ONC0004052, anagrelide hydrochloride], the “% viability” value stood at 92.6%.

For `CCCCCCCCCCCCCCOc1ccc(C(=O)O)o1` [ONC0001962, kd023], the “% viability” value came to 79.93%. On to `Nc1nc(Cl)nc2c1ncn2[C@@H]1O[C@H](CO)[C@@H](O)[C@@H]1F` [ONC0003106, clofarabine], for which the “% viability” value is listed as 80.77%. For `CC(C)C(=O)OCC(=O)[C@@]12O[C@H](C3CCCCC3)O[C@@H]1C[C@H]1[C@@H]3CCC4=CC(=O)C=C[C@]4(C)[C@H]3[C@@H](O)C[C@@]12C` [ONC0005456, ciclesonide], the “% viability” value came out at 95.02%. Then `COc1ccc(-c2cc(=O)c3c(O)cc(O)cc3o2)cc1O` [ONC0005003, diosmetin luteolin 4methyl ether], with 109.7%; and `CN1CC[C@H](c2c(O)cc(O)c3c(=O)cc(-c4ccccc4Cl)oc23)[C@H](O)C1` [ONC0002574, alvocidib], with 94.13%. `Cc1cc(C)c(N(Cc2ccccc2)S(=O)(=O)c2ccc(OCCNC(=O)c3cc4ccccc4o3)cc2)c(C(=O)NO)c1` [ONC0001252, way170523]: the “% viability” value is 100.5%.

As to `Fc1ccc(C(OCCN2CCN(CCCc3ccccc3)CC2)c2ccc(F)cc2)cc1` [ONC0001594, vanoxerine], the “% viability” value was determined as 82.46%.

Regarding `CC(C)n1nc(C#Cc2ccccc2)c2c(N)ncnc21` [ONC0003074, spp86], the “% viability” value amounted to 114.9%. As to `CC1(CN)Cc2ccccc2C1` [ONC0003802, org9768], the “% viability” value turned out to be 50.43%.

Consider `COC(=O)CC1CC(c2ccc(O)cc2)=NO1` (stereo not drawn) [ONC0001839, iso1], for which the “% viability” value came out at 78.97%. `CCc1cc(C(C)=O)c(O)cc1OCCCCCC(C)(C)c1nn[nH]n1` [ONC0000139, ly255283]: the “% viability” value was found to be 63.1%. Then `O=C(NNC(=O)c1ccc(CNS(=O)(=O)c2ccc(F)c(Cl)c2)cc1)c1ccccc1` [ONC0002670, tcn201], with 98.19%; and `O=C(Cn1ccnc1[N+](=O)[O-])NCCO` [ONC0002957, etanidazole], with 131.1%; and `C[C@@H](N)[C@H]1CC[C@H](C(=O)Nc2ccncc2)CC1` [ONC0000092, y27632], with 65.25%. For the compound `N#Cc1c(N2C[C@@H]3NCCO[C@H]3C2)c(F)cc2c(=O)c(C(=O)O)cn(C3CC3)c12` [ONC0003702, 8cyano1cyclopropyl6fluoro74as7ashexahydropyrrolo34b14oxazin62hyl4oxo14dihydroquinoline3carboxylic acid], the “% viability” value was determined as 89.13%. For `C[C@H](NC(=O)c1sccc1OCc1ccc(Cl)cc1)c1ccccc1` [ONC0002601, as1949490], the “% viability” value was determined as 95.03%. For `O=c1cc(-c2ccc(O)cc2)oc2cc(O)cc(O)c12` [ONC0000851, apigenin], the “% viability” value is given as 76.29%. In the case of `O=C(NC(=O)c1c(F)cccc1F)Nc1cc(Cl)c(OC(F)(F)C(F)C(F)(F)F)cc1Cl` (stereo not drawn) [ONC0003984, lufenuron] it was 72.45%.

Regarding `CNCC(=O)c1ccc(O)c(O)c1` [ONC0005368, adrenalone hydrochloride], the “% viability” value was determined as 116.7%. For `Oc1cccc(Nc2ncc(F)c(Nc3cccc(O)c3)n2)c1` [ONC0001120, r112], the “% viability” value is given as 54.84%.

For `NC(=O)N1c2ccccc2C=Cc2ccccc21` [ONC0000771, carbamazepine], the “% viability” value is reported as 64.37%. Then `COc1ccc2cc1Oc1cc3c(cc1OC)CC[N+](C)(C)[C@H]3Cc1ccc(cc1)Oc1c(OC)c(OC)cc3c1[C@@H](C2)[N+](C)(C)CC3` [ONC0003823, metocurine], with 60.87%; and `CC(C)n1nc(-c2cc3cc(O)ccc3[nH]2)c2c(N)ncnc21` [ONC0004935, torkinib pp242], with 79.77%.

As to `Cc1ncc[nH]1` [ONC0002814, 2methyl1himidazole], the “% viability” value amounted to 94.03%. For `Oc1ccc(CC2NCCc3cc(O)c(O)cc32)cc1` (stereo not drawn) [ONC0003672, 67dihydroxy14hydroxybenzyl1234tetrahydroisoquinoline hydrochloride], the “% viability” value is 58.02%.

`Clc1ccc(C(Cn2ccnc2)OCc2c(Cl)cccc2Cl)c(Cl)c1` (stereo not drawn) [Isoconazole nitrate (Travogen), Isoconazole nitrate]: the “% viability” value is reported as 2.362%. `C=CC(=O)N1CCN(C(=O)CNc2cc(I)c(Cl)cc2O)CC1` [ONC0001008, krasg12c inhibitor 12]: the “% viability” value is given as 62.44%. On to `N#Cc1ccccc1OCC(O)CNCCNC(=O)Nc1ccccc1` (stereo not drawn) [ONC0000133, ici89406], for which the “% viability” value is recorded as 114%. In the case of `NC(CO)(CO)CO` [ONC0003339, tromethamine], the “% viability” value stood at 75.13%. Take `COc1ccc(C2CNC(=O)NC2)cc1O[C@H]1C[C@@H]2CC[C@H]1C2` [ONC0003814, atizoram]: the “% viability” value was determined as 68.47%. `C[C@H](N/C(=N/C#N)Nc1cccc2ncccc12)c1ccccc1` [ONC0002704, a804598]: the “% viability” value is given as 92.66%.
